From PMC4888889
Construct, isoform or probe ends are uncertain for at least one entry. For some assays here: Results from cells or extracts need not show a direct contact. For some assays here: Negatives hold for the conditions tested. For some assays here: Where a protein sequence is shown, tags need not be part of it.

Legend:
[1] = target: T1, GlnR (endogenous) (Streptococcus salivarius 57.I) (UniProt Q5UBU4); test: pull-down (DAPA); details: 20 nM probe, 500 ug lysate; DAPA: 10 mM Tris-HCl pH 7.6, 60 mM KCl, 5% glycerol, 0.5 mM EDTA, 1 mM DTT, 4 C 1 h; protein in an extract; label: biotin 3' end
T1 sequence (looked up, limits assumed): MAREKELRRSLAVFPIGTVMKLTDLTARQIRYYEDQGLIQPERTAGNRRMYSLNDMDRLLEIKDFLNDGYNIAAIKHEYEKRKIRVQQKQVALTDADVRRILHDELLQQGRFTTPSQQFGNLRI

[2] = test system: MalE-alpha-CTD (RNA polymerase alpha subunit C-terminal domain); test: EMSA; details: 0.25-4 uM protein, abolished by 300-fold unlabeled probe; EMSA: 50 mM Tris-HCl pH 7.4, 50 mM KCl, 2 mM MgCl2, 100 ng poly(dI-dC), 0.5 ug BSA, 0.01 pmol probe, 4 C 30 min; recombinant protein; protein details: MalE (MBP); label: biotin
[3] = target: T2, VicR (endogenous) (Streptococcus salivarius 57.I) (UniProt J7TI38); test: pull-down (DAPA); details: 20 nM probe, 1 mg lysate; DAPA: 10 mM Tris-HCl pH 7.6, 60 mM KCl, 5% glycerol, 0.5 mM EDTA, 1 mM DTT, 4 C 1 h; protein in an extract; label: biotin 3' end
T2 sequence (looked up, limits assumed): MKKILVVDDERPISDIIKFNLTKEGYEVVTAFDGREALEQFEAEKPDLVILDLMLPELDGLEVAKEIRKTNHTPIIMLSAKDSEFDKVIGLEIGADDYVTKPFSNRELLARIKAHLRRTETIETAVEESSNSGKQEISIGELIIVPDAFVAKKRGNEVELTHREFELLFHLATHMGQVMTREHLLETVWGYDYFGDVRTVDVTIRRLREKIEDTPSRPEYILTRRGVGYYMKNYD

## AATGTAATGTCATTTTTTGACACCACATGT (double strand) [GlnR box 2 probe]
[1]
  binding result: binds

## ACCACATGTTAGCTTGACTAATATGTAAAT (double strand) [GlnR box 1 probe]
[1]
  binding result: binds

## CCTGTAAATGTTGCAAAATCC (double strand) [21-bp alpha-CTD probe (VicR box / UP element)]
[2]
  binding result: binds

## CTAATACTAGTGTAATAATAGTATTCTGAA (double strand) [mutated VicR box probe]
[3]
  binding result: no binding

## CTAATATGTAAATGTTGCAAAATTTCTGAA (double strand) [VicR box probe]
[3]
  binding result: binds
